## Primary screen of a compound library

Protein sequences, listed by entry. Tags and fused reporters are not part of them.
UniProt E9BF75, entry or part of it: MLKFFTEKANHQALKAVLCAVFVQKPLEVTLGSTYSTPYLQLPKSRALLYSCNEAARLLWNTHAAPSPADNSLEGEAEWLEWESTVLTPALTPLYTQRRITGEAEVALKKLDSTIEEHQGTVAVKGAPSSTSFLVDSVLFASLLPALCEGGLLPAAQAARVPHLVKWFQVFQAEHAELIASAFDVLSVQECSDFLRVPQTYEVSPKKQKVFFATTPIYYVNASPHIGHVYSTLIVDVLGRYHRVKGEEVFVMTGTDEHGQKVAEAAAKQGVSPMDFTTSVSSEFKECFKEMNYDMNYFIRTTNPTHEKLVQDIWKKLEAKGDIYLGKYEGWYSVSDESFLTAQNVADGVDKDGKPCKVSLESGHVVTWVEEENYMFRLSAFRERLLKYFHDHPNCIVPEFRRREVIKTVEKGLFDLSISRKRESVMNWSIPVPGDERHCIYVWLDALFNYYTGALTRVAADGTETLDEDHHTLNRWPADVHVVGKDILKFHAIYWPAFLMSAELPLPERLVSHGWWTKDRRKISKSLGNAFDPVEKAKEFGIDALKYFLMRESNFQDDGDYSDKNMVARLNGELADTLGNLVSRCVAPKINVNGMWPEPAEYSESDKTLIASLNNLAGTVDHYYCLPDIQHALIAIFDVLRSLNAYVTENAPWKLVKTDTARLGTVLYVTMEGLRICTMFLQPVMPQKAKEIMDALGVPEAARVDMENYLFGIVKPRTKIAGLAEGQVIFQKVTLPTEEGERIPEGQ

Data taken from ChEMBL document CHEMBL3988442, “University of Dundee, Small-Polar-MMV Screening Library” (2021).

All values are in %.
The controls that fix the scale are not given in the record; negative values are as filed.
This is an unselected part of the compounds tested.

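Primary screen of methionyl-tRNA synthetase; the read-out is not stated. Target: Methionyl-tRNA synthetase (putative), Leishmania donovani (UniProt E9BF75). The test concentration is not given. Values are per cent inhibition. About 68,000 compounds were tested under these conditions; 0.035% (about 24) showed 50% or more at least once.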

structure	Inhibition
CCOc1ccc(Cl)c(C(=O)N2CCN(c3cnccn3)CC2)n1	7.692%
CS(=O)(=O)NC1CCN(C(=O)CCC2CCCO2)CC1 (centres undefined)	-1.42%
c1ccc(CCN2CCc3c(ncn3C3CC3)C2)nc1	-22.08%
CN(C)c1ncc(-c2cc(C(=O)O)n(CC3CC3)c2)cn1	8.571%
CCCN(CC1CC1)C(=O)Nc1ccc(N2CCSCC2)cc1C	22.55%
COc1ccc(-c2ccnc(N)c2)c(C)c1	12.11%
Cn1cc(N2C(=O)CC[C@@H]3[C@H]2CCN3C(=O)c2cscn2)cn1	13.74%
Cc1c[nH]cc1C(=O)N1CCN(CCc2cccs2)CC1	7.362%
CC(NC(=O)CN1CCN(Cc2ccc(Br)s2)CC1)c1ccccc1 (centres undefined)	6.015%
CC(C)(C)n1nc(C(=O)NC2CCN(CC(N)=O)CC2)cc1C1CC1	10.57%
COc1cc(OC)c2nc(NCCN3CCNC3=O)cc(C)c2c1	-2.558%
c1ccc(N2CC3(CCN(Cc4cccnc4)C3)C2)nc1	18.49%
CC(=O)N1[C@H](CN(C)C)C[C@@H]2CN(C(=O)c3cncc(C)c3)CC[C@@H]21	16.81%
COCCN1CCN(C(=O)c2ccc(C)cc2OC)[C@H]2CS(=O)(=O)C[C@H]21	7.444%
CCCc1nccn1-c1ccc(C(C)O)cc1 (centres undefined)	13.03%
CCN(Cc1ccco1)C(=O)NCc1nnc2n1CCCCC2	-3.261%
Cc1nn(C)c2c(NCCCn3cccn3)ncnc12	9.544%
Cn1cc(C(=O)N2CCCC2c2noc(C3CC3)n2)c2ccccc21 (centres undefined)	7.229%
CCn1cnnc1CCNS(=O)(=O)N1CCCC1c1ccco1 (centres undefined)	7.627%
O=C1Nc2ccccc2/C1=C1\CCCN1	3.226%
COc1cccc(C2CCCN2C(=O)NCCCn2cccn2)c1 (centres undefined)	2.653%
CN(Cc1cccc(C#N)c1)c1ncc(C(N)=O)cc1Cl	15.32%
Cc1ccc(C(=O)N(CCC#N)Cc2ccccn2)cc1C	2.122%
Cc1cc(C(=O)N2CCCCC2c2nc3cc(F)ccc3[nH]2)no1 (centres undefined)	0.2833%
COCCC1(C(=O)O)CCCN(C(=O)c2cc(C)oc2C)C1 (centres undefined)	8.657%
COc1ccc(C(=O)N(C2CC2)C2CC(=O)NC2=O)cc1 (centres undefined)	16.03%
CC(C)N(CCO)C(=O)C1CCC(=O)N(CCc2ccc(Cl)cc2)C1 (centres undefined)	13.1%
CCOC(C)c1noc(CN2CCCNCC2)n1 (centres undefined)	14.34%
NC(=O)Cn1cnc2nc3n(c2c1=O)CCC3	5.263%
CS(=O)(=O)NC1CC(=O)N(c2ccccc2Cl)C1 (centres undefined)	10.3%
CC(=O)C1(c2ccccc2)CCN(C(=O)c2ccn3nnnc3c2)CC1	12.24%
CC(C)CN1CCN(Cc2nc3ccccc3[nH]2)[C@H]2CS(=O)(=O)C[C@H]21	11.52%
CC(C)N(CC(N)=O)Cc1csc(C(C)(C)C)n1	9.296%
COC(=O)c1cccc(S(=O)(=O)NCC(c2ccco2)N2CCCC2)c1 (centres undefined)	9.322%
COCC(=O)N(C)Cc1nc(N(C)C)ncc1-c1ccncc1	9.969%
CCOc1ccccc1-c1noc(CN2CCN(CCOC)CC2)n1	8.591%
Cc1nc(C2CCCNC2)cc(N(C)CCc2ccccc2)n1 (centres undefined)	10.14%
CN1CCN(Cc2c(-c3ccco3)[nH]c3ncccc23)CC1	9.647%
CS(=O)(=O)NC1CCN(Cc2coc(-c3ccc(Cl)cc3)n2)CC1	9.059%
O=C(c1ccnnc1)N1C[C@@H]2OCCN(CCN3CCCC3)[C@@H]2C1	5.724%
COCCCC1(C(=O)O)CCCN(C(=O)c2ccc(C(C)C)[nH]c2=O)C1 (centres undefined)	16.08%
Cc1cc(C)n(CC2CCCN2CCCS(C)(=O)=O)n1 (centres undefined)	18.95%
O=C(c1ccc[nH]1)N1CCc2c(cccc2S(=O)(=O)N2CCOCC2)C1	16.51%
OCCOc1cc(F)ccc1NCc1ccc(F)c(F)c1	5.602%
O=C(Nc1ccnn1C1CCCC1)c1ccc(NC2CC2)nc1	9.574%
Cc1cc(NC(=O)CN2CCCC2Cn2nc(C)nc2C)on1 (centres undefined)	20.57%
CCn1nc(C)c(CCNC(=O)c2cccc(NCC(=O)O)c2)c1C	3.686%
CCCc1cc(C(=O)N2CCC3(CCCN(CCOC)C3=O)C2)cs1 (centres undefined)	2.74%
Cc1ncc(C)c(N2CCCC(CO)(Cc3cccc(Cl)c3)C2)n1 (centres undefined)	12.6%
O=C(NCc1nc(NC2CCCC2)c2cc(Cl)ccc2n1)c1ccoc1	13.87%
CNS(=O)(=O)c1ccc(CNC(=O)N(C)C(C)COC)cc1 (centres undefined)	13.77%
Cc1noc(CCCC(=O)NCC(c2ccco2)N2CCCC2)n1 (centres undefined)	10.65%
CCc1ocnc1C(=O)N1CCC(C2CCN(c3ncccn3)CC2)C1 (centres undefined)	11.11%
CCN(CC1CN(Cc2nc(C3CC3)no2)CCO1)c1cccnn1 (centres undefined)	17.51%
CC(C)(C)c1csc(C2CCCCN2C(=O)CCn2cncn2)n1 (centres undefined)	17.42%
COCC(=O)NCc1cc(=O)n2c(n1)CN(Cc1ccoc1)CCC2	15.95%

The first 5 entries again:

| structure | Inhibition |
|---|---|
| `CCOc1ccc(Cl)c(C(=O)N2CCN(c3cnccn3)CC2)n1` | 7.692% |
| `CS(=O)(=O)NC1CCN(C(=O)CCC2CCCO2)CC1` (centres undefined) | -1.42% |
| `c1ccc(CCN2CCc3c(ncn3C3CC3)C2)nc1` | -22.08% |
| `CN(C)c1ncc(-c2cc(C(=O)O)n(CC3CC3)c2)cn1` | 8.571% |
| `CCCN(CC1CC1)C(=O)Nc1ccc(N2CCSCC2)cc1C` | 22.55% |